These are yes or no findings as the source states them, for the method shown. Binding seen in cells or lysates may run through a third protein. Some entries that bind do so weakly or less than the wild type. Where a sequence is shown, tags or fusion partners need not be part of it.
Tests used:
HSP-4::GFP (C. elegans) = HSP-4::GFP (C. elegans) (UniProt P20163); assay: co-IP
[1] = biological target: P97(CDC48.1)::GFP::HA::6×His (C. elegans) (UniProt P54811); assay: co-IP

Amino acid sequences for entries named in this document (tags omitted). Residues count along the entry.
UniProt P20163, residues 18-657: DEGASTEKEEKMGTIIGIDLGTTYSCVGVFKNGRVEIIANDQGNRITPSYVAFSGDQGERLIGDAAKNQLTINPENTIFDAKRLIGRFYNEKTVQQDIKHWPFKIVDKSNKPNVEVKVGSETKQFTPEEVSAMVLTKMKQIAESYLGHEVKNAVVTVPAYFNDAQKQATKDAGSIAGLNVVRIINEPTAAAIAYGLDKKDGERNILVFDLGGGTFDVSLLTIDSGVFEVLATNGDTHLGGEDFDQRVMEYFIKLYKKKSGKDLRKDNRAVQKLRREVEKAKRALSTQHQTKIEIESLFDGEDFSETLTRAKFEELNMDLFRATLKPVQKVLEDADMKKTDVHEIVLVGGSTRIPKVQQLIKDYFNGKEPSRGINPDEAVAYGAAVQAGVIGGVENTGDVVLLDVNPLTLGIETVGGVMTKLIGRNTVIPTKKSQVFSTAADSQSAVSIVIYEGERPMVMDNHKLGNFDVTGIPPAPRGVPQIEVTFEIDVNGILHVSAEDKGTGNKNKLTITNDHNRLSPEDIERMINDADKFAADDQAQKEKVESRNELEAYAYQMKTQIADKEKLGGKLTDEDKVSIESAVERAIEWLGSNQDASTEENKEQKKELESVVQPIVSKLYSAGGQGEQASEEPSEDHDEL
UniProt P54811: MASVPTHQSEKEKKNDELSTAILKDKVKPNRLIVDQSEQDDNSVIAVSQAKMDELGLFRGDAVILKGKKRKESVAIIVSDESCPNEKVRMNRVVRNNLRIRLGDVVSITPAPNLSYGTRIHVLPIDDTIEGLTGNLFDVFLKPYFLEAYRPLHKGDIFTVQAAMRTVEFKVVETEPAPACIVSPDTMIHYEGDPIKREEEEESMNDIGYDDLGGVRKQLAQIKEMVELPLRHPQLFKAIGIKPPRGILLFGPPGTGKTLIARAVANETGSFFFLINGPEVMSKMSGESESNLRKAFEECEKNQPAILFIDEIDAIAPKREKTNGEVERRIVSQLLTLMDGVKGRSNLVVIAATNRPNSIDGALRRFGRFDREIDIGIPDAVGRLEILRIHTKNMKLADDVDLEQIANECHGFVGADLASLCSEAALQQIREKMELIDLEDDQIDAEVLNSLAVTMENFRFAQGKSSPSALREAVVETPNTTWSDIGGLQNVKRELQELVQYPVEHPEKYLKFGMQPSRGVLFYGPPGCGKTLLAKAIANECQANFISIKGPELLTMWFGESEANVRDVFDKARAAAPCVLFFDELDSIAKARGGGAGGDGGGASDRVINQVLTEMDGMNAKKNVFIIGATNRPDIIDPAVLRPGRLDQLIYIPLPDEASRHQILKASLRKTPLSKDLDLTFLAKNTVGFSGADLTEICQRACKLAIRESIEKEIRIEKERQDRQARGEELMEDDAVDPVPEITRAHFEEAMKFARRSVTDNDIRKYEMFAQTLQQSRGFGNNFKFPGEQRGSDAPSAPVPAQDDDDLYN

binding (HSP-4::GFP (C. elegans)) | binding [1] | Binder
binds | binds | TRA-2::Flag::HA (protein, UniProt P34709 32-1475) IDYQEKSIFPSFVSQGFFETRTNNEEYIIEKIAQTQENGVDMRSTLHFTQHGYLLNNISNLKIKFRQKTYTLNDVCFKPHITIFQQSSSSDQNEYPHYIQRLLLEMQRLSPCLIVTPLNCFYDIYRIHGEISNWNKNTDFLNRRLRNSYIEAIGENDERPYVKSNYGPSLIKSWADHMFDLPSKSFTNSTKDALFQKIKLWLLSIEPRQKTCAASIHSCDTPLDSEHYFNICTDMQSVDNFAEKKTKFKLEDVDEEFAMNLDCVDDQEQFIEWMQELEIRKMYSHVTEKPDYPNVVNQTCDKIFHDLNSTGIEFFDGSRSFSSTKSQFDTMQTEIVLLTPEMLLSAMQHSDFVNGFESIWTIEKAEELIHEFRLALKEETEKFKENRMSKMIRVTSRVLDNTVTTKLQSFSEKQTIHFVVNVHSLIVILFTIFVWSGAPLRSAFMFFVRDALTCLLFCFVCSTDGVIVLDTELIKYIIVLTLANLYFTTRSSFCTERLSRCIQREKRFPINSNFASLITVDTMTDSRQIQYFLSTVTKYQAAQDSYSNELFERFPKNWGCTSILIFPIVFVYWYFIDSNFDKICVSVLPSFCLAAGEELFAKNMFWKEREAMQAKQRLENEEQAESITGSSLEKLFAGNKPVSNTDKANIVKKSSIIRNQKPCLQDLSPGTYDVSNFMKYPHQASRIFREKIIGLYLRILKLRTLGVILCIPAILLIVISIGLLFIPVKRETLHTDSKQDDIFIEFEIFNFSTNWKIVNQNLKQFSEDIESIGTLYTISNWQKSFERFEQETNKNASAEWNILFKWINDEPINSAVTLFSEKSSGNQTIANPFKFRLRYGFDAKNETTVIEIVQKIDELLSKCSKNLSPKAVGVLYEHYHRIAVVWNLFAFNQLTTAGIFIILLSIITFIFAITPTIKATFLFSLLVVGTQIEVAALVHLFSLDHHQIYTNLALFAGFLAAWDPFCALLRYRRRILYKSETRRTPELASKRRVLLPIVATADIAQFFVLLITAFSILAIICSIVPELNIFFVPTVILIVIQIVAVFNSIIVSIATKQMFESEVRHYLHRDLRGSTTAVRVYNLVQKQRLASSLDEPQVELDEFSIKRSSPPCRYYAPPPKYSCKKRSRSSDEDEDSDPNQPGPSNRRSPKTGNKRVRGNGDNTELYIPNRYELIVSGKSVGGNTSAAWNGPGSTLEQNMNALEECFELGVDEYDFDEHDGDEGCELVQDMLDRERNLMNKRSTAQRRESRNIEKMKKSQENLDKEKSEEKISESKKNQDDSIESPNLPGTPANLPVDEPLPPVGRLYIVEHVLPEEYRRDPLTEPPSMEDCIRAHSDPNLPPHPRADQYPASFTRPMVEYCEDIYWTHRTGQLPPGLQVPRRPYDYYHITERTPPPEDLNWVPPAESPPIPIPQQAFDLLEERRRNHREQQDEAREGDLSDPEV
no binding | – | 3×Flag::FEM-3 (protein, UniProt P34691 1-388) MEVDPGSDDVEADRETRAQKLKLKRNVKFRAQMRRFDEYCGVTNLTVDDLNWPLISGIPLQRQRLTGATYYDDSLLDQNPWDEFSIDRFLEITSIQLITAGAGYERNDEITRFVFQRTMKTIVTYCNFMYDLARRNGKVQITRFELQDLIHRDEFRFYMYFRQFLPNPDPNCTAFSNHYTSLLHTLYFNIPGMPQFWNNSQMYNYAATRGQRLVQNIAAFYPPEYFWNEDESKYHTTFVVPRGTEFSKFYARRFHEALGMPPLENEIITVLDWLAKLCILEIVYHTTIWCDITGFGGLPRIEHYRLAMENVEDIIFDLAIDDFSISRLQLQISPFEISRYSPLDVSGYYETIKRKKDIEEYQNRFYEVHYSDDVRIMNVYATDCSRKR

Reference: doi:10.1101/2024.06.17.599447
